The values below come from patent US10215752B2, “Nanotube array for optical detection of protein-protein interactions” (MASSACHUSETTS INSTITUTE OF TECHNOLOGY, priority 2010, dated 2019).

The test system of data set [1] is antiHis Ab. The experiment in a line: Protein-protein interaction on SWNT/CHI array, Förster distance calculation. Conditions: distance change after analyte protein antiHis Ab, Förster equation.
The subject of data set [2] is Ni-NTA functionalized SWNT/CHI array. Kind of data set: On-chip cell-free expression and immobilization of His-tag capture proteins, nIR fluorescence of SWNT/CHI array. Conditions: distance change between Ni2+ ion and SWNT after receptor protein, Förster resonance energy transfer equation.

“Tsf: E. coli protein (ExPASy P0A6P1), cell-free expressed with C-terminal His-tag”: in data set [1], the Δd2 was −0.01899. Also, the Δd1 in data set [2] is reported as 0.1883 nm.
Regarding “p16: human derived protein (ExPASy P42771), on-chip cell-free expressed with His-tag”, the Δd1 in data set [2] stood at 0.0812 nm.
With “FOS: human derived protein (ExPASy P01100), on-chip cell-free expressed with His-tag”, the Δd1 in data set [2] is recorded as 0.0956 nm.
Take “JUN: human derived protein (ExPASy P05412), on-chip cell-free expressed with His-tag”: the Δd1 in data set [2] was 0.07671 nm.
